The exact form of at least one protein or probe is not confirmed. At least one verdict rests on a figure or table, not on a statement of the authors.
Tests used:
Assay in all cases: fluorescence polarization
Settings in all cases: range over all mutants; 5'-phosphate on forward strand; residues 1-583
[1] = biological target: ARTD2FL G338A (Homo sapiens) (UniProt Q9UGN5)
[2] = biological target: ARTD2FL E286A (Homo sapiens) (UniProt Q9UGN5)
[3] = biological target: ARTD2FL E286R (Homo sapiens) (UniProt Q9UGN5)
[4] = biological target: ARTD2FL N129A (Homo sapiens) (UniProt Q9UGN5)
[5] = biological target: ARTD2FL Y201F (Homo sapiens) (UniProt Q9UGN5)

Amino acid sequences for entries named in this document (tags omitted).
UniProt Q9UGN5, whole entry G338A: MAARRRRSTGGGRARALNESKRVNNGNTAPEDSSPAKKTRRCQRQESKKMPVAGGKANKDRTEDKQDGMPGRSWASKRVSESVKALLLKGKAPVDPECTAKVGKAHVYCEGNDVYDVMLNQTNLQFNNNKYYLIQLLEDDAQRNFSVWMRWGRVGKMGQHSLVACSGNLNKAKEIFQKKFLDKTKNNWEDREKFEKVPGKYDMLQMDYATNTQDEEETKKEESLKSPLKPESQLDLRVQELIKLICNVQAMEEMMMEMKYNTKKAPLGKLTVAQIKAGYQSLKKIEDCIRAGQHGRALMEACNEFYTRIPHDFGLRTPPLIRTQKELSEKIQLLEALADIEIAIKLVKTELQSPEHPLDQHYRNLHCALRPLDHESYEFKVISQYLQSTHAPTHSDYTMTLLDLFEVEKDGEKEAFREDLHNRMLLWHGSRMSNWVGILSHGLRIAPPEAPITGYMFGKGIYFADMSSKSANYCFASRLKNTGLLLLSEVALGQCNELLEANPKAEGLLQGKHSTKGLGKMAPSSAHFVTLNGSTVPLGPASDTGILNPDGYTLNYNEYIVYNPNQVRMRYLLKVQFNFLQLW
UniProt Q9UGN5, whole entry E286A: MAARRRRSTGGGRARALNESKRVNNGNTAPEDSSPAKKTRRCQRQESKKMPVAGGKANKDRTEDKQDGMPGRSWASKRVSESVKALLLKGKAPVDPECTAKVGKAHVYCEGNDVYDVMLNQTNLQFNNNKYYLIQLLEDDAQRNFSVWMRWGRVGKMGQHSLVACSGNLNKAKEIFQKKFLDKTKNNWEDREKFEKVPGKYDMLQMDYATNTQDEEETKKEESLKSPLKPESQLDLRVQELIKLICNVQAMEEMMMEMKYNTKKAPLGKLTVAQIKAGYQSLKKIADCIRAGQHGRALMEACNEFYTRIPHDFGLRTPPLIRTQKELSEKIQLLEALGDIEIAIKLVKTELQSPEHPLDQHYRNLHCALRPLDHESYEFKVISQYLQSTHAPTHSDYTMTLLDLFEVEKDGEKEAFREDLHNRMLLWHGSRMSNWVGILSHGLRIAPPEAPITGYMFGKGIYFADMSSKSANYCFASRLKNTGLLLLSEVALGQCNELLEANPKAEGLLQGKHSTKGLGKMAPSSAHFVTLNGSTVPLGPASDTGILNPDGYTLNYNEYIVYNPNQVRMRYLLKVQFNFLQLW
UniProt Q9UGN5, whole entry E286R: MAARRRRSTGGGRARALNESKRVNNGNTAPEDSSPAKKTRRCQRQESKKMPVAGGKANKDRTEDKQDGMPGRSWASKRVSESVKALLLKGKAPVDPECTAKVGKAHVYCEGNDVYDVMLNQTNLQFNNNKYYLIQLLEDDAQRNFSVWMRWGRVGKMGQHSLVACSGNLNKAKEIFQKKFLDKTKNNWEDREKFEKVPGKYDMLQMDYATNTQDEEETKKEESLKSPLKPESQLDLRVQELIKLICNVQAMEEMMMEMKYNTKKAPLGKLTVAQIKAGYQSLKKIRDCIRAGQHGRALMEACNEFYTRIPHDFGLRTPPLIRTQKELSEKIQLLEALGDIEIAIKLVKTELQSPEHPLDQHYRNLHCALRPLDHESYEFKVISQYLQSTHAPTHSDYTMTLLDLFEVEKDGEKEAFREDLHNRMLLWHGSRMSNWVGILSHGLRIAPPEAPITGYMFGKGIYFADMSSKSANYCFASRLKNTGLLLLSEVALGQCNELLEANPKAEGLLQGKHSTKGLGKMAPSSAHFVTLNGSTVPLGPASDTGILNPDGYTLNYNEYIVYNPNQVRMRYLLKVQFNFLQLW
UniProt Q9UGN5, whole entry N129A: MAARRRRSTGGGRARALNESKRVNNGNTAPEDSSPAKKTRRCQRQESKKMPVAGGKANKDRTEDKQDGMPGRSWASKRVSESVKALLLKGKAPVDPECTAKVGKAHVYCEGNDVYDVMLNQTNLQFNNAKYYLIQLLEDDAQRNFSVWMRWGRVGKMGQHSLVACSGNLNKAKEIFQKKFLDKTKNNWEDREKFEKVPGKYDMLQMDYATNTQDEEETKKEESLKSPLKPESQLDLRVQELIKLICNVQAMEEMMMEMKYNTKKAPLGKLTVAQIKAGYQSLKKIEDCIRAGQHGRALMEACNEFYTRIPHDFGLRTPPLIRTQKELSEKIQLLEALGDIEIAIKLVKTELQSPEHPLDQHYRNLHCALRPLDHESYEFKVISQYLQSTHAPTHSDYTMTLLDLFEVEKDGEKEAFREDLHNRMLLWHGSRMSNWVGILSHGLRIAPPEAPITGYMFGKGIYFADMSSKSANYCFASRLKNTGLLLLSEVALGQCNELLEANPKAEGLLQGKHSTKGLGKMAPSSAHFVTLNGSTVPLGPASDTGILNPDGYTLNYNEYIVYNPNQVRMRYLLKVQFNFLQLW
UniProt Q9UGN5, whole entry Y201F: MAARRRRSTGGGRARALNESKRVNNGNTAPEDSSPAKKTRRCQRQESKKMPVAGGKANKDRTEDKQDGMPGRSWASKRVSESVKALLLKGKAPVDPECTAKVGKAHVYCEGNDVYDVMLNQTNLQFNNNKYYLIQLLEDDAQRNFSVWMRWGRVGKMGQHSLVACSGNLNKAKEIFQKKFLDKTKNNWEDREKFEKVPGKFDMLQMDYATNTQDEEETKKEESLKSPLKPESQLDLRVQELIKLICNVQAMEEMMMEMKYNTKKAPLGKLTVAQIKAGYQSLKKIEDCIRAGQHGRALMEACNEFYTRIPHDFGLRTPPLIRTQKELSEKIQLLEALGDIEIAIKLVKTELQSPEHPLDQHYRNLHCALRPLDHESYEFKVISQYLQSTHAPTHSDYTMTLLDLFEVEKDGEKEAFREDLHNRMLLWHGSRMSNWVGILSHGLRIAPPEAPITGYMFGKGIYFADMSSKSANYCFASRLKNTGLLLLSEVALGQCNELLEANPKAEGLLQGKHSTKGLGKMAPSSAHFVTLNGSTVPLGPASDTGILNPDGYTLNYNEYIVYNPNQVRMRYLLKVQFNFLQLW

Measured: binding result

GACGCAACCCGGAGAACACA (double strand) [DNA-9]
binds: all assays above

From paper doi:10.1101/2020.11.24.395475
